The data set has as its target Ku70 SAP domain WT (Homo sapiens) (UniProt P12956). The experiment in a line: EMSA. The conditions noted are these: apparent KD, 105 mM KCl; SAP EMSA: 105 mM KCl (400 bp) or 46 mM KCl (153 bp), 3 mM Tris-HCl pH 7.5, 0.1 mM EDTA, 3-4% glycerol, 15 min room temp, agarose (0.8% or 1.5%); recombinant protein; residues 539-609; probe letters rebuilt from the primers and the genome. (In general: Mobility shift assays separate free from complexed probe on a gel.)

The exact form of at least one protein or probe is not confirmed.

Here are results for 1 sequence from PMC12816671.

Take “ACTTGACTCATGATTTCTTACCTATTAGTGGTTGAACAGCATCGGACTCAGATAGTAATCCACGCTCTTTTAAAATGTCAACAAGAGAATCTCTACCATGAACAAAATGTGACTCATATCTAAACCAGTCCTTGACGAACGTGCCAAGCATATTAAGCCACTTCTCCTCATCCAACGCGTCAGTTTTTGACAGAATCGTTAGTTGATGGCGAAAGGTCGCAAAGTAAGAGCTTCTCGAGCTGCGCAAGGATAGGTCGAATTTTCTCATTTTCCGCCAGCAGTCCACTTCGATTTAATTCGTAAACAAGCAGTAGTAATTCCTGCTTTATCAAGATAATTTTTCGACTCATCAGAAATATCCGAAAGTGTTAACTTCTGCGTCATGGAAGCGATAAAACTC (double strand) [400 bp PhiX174 fragment]”: the binding result was “binds”.
